# Measured values taken from publication PMC8671480.
# By UniProt entry, the sequences of proteins in these tests, tags left out.
# UniProt Q62760: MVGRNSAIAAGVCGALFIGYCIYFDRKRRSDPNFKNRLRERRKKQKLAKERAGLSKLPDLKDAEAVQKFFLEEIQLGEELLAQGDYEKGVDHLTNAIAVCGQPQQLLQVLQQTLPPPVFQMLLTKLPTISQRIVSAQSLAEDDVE
# No constants are given. Whether binding was seen depends on the method and setting. In cells and extracts the contact can be indirect.
# T1: tumor necrosis factor receptor-associated protein 1 (TRAP1) (rat (endogenous in H9C2 and in rat heart tissue)) (UniProt Q5XHZ0)
# T1 sequence: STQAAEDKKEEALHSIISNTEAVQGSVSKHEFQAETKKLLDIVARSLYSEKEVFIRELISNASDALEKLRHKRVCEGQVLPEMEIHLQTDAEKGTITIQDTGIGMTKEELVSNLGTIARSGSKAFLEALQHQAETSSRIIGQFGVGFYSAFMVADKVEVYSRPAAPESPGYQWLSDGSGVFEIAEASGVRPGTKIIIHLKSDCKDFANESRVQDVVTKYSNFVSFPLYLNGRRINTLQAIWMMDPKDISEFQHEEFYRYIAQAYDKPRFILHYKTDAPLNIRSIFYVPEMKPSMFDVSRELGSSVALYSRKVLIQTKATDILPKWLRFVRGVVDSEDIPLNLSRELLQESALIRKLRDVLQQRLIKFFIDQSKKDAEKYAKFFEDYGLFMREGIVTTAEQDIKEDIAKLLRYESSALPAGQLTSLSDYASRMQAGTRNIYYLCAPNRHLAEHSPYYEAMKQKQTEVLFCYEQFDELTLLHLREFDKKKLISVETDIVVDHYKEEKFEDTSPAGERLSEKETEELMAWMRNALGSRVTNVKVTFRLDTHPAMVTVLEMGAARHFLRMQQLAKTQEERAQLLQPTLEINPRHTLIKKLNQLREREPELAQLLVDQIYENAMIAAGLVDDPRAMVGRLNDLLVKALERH
# B1: Prohibitin (protein, UniProt P67779 1-272)
# chain: MAAKVFESIGKFGLALAVAGGVVNSALYNVDAGHRAVIFDRFRGVQDIVVGEGTHFLIPWVQKPIIFDCRSRPRNVPVITGSKDLQNVNITLRILFRPVASQLPRIYTSIGEDYDERVLPSITTEILKSVVARFDAGELITQRELVSRQVSDDLTERAATFGLILDDVSLTHLTFGKEFTEAVEAKQVAQQEAERARFVVEKAEQQKKAAIISAEGDSKAAELIANSLATAGDGLIELRKLEAAEDIAYQLSRSRNITYLPAGQSVLLQLPQ
# Target: T1, tumor necrosis factor receptor-associated protein 1 (TRAP1) (rat (endogenous in H9C2 and in rat heart tissue))
# Experiment: co-IP; H9C2 lysate (500 μg total protein) with anti-TRAP1 or anti-MIC60 on protein A/G magnetic beads, 4 °C, 6 h, washed with PBST (PBS, 0.5% Triton X-100); Western blot
row,Molecule,binding
1,TOM20 (from UniProt Q62760 1-145),no binding
2,B1,no binding
